Measurements reported in paper PMC11354310, “The Discovery of a Specific CKIP-1 Ligand for the Potential Treatment of Disuse Osteoporosis” (International Journal of Molecular Sciences, 2024).
Results are given in words; binding and its absence hold for the method and conditions named. Binding seen in cells or lysates may run through a third protein. Some results given as binding are weak or reduced against the parent protein; the word gives no strength.

Sequences of proteins named here, by UniProt entry; tags and fusion partners are left off. A change or cut given only in a name is not applied to a line headed by its entry. A line that says so, or that is headed by a name, gives the form on record, which may keep a tag or linker. Residues count along the entry.
UniProt Q53GL0: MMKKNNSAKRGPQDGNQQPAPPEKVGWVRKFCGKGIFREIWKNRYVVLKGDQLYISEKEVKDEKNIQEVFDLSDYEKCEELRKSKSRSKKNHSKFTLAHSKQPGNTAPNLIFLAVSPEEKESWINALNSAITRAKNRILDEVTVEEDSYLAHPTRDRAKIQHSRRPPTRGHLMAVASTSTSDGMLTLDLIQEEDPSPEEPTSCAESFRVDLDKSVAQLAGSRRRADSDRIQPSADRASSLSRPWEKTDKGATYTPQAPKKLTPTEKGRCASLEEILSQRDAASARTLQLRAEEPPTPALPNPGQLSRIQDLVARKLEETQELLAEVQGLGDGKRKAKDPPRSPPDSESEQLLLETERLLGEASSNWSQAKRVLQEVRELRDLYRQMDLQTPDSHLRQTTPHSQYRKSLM
Flag-tagged CKIP-1 PH (22–136): residues 22-136 of Q53GL0
Flag-tagged CKIP-1 ΔPH (1–22 and 136–409) (Q53GL0, form named): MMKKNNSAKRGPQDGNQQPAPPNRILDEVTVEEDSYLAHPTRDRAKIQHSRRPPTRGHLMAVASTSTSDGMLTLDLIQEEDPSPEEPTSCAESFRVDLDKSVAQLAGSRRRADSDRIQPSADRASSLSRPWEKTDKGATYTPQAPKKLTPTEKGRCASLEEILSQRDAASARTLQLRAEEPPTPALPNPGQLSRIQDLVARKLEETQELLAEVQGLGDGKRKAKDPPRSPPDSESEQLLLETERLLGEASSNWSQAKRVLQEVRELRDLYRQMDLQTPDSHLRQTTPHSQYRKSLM
UniProt Q9JIY0: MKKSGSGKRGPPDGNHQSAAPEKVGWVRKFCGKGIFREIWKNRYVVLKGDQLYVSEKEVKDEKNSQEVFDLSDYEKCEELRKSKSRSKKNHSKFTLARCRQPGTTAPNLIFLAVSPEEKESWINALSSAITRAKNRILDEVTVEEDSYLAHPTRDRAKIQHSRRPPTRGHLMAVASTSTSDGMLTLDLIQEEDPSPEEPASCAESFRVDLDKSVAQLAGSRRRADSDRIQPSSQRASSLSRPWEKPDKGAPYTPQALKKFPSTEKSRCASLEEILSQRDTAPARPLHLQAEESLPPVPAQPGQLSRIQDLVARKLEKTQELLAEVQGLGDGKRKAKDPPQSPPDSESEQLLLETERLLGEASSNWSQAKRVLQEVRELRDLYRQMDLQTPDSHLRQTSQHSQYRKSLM
UniProt P40337: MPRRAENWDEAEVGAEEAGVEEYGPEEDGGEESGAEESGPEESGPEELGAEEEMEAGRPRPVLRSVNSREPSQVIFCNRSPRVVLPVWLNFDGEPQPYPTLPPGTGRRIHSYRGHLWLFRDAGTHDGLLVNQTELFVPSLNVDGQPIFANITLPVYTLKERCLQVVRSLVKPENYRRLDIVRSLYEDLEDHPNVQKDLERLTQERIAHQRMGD
UniProt P40338: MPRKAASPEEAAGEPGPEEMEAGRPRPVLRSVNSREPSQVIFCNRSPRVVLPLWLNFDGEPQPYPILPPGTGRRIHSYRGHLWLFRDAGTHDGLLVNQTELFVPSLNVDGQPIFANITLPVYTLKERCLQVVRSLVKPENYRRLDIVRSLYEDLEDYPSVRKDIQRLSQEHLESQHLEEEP

Experiments:
[1] = biological target: Flag-tagged CKIP-1 (casein kinase 2 interacting protein-1), wild type (human) (UniProt Q53GL0); experiment: co-IP; HEK293T cells transfected for 24 h with Myc-tagged VHL alone or together with Flag-tagged CKIP-1 (WT or constructs); HEPES lysis buffer (20 mM HEPES pH 7.2, 50 mM NaCl, 0.5% Triton X-100); immunoprecipitated with Flag antibody, immunoblot
[2] = biological target: Flag-tagged CKIP-1 PH (22–136) (human) (UniProt Q53GL0); experiment: as above
[3] = biological target: Flag-tagged CKIP-1 ΔPH (1–22 and 136–409) (human) (UniProt Q53GL0); experiment: as above
[4] = biological target: CKIP-1, endogenous in BMSCs (UniProt Q9JIY0); experiment: co-IP; BMSC whole-cell lysates immunoprecipitated with control IgG or CKIP-1 antibody, immunoblot; endogenous proteins

| binding [1] | binding [2] | binding [3] | binding [4] | Substance |
| --- | --- | --- | --- | --- |
| binds | binds | binds |  | Myc-tagged VHL (von Hippel–Lindau), wild type (from UniProt P40337 1-213) |
|  |  |  | binds | VHL, endogenous in BMSCs (from UniProt P40338 1-181) |
